According to article PMC13440570:

Molecular target: T1, SDS:mVenus^Cter (PROSDS:SDS:mVenus^Cter) (Arabidopsis thaliana) (UniProt Q1PFW3)
T1 sequence: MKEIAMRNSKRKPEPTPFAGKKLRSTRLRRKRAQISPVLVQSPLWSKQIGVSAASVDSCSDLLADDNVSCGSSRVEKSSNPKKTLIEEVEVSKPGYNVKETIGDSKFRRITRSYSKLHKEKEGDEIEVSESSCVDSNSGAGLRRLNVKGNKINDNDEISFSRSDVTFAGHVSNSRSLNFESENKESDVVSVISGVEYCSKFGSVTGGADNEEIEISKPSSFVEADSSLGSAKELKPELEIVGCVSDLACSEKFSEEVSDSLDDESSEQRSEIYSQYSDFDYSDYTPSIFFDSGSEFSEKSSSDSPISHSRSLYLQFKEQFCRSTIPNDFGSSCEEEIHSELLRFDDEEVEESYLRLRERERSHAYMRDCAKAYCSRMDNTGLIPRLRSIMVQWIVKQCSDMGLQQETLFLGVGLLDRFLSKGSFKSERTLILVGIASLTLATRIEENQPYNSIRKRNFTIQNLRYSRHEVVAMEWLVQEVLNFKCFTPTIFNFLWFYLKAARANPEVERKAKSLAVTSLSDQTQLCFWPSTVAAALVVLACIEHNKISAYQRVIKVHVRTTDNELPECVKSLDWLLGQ
Assay: split reporter; in planta BiFC (split mVenus) in male meiocytes of transformed Arabidopsis wild-type plants, native promoters; confocal microscopy of anthers

For “ASY1^Δclosure-NLS:mVENUS^Nter (PRO_(ASY1):ASY1^Δclosure-NLS:mVENUS^Nter) (Arabidopsis thaliana | SV40) (domain or fragment)”, the binding was “no binding”.

No constants are given. Whether binding was seen depends on the method and setting. Binding seen in cells or lysates may run through a third protein.
